Laboratory results as given in patent US20100093634A1 (UNIVERSITY OF MARYLAND BALTIMORE, published 2010).
Results are given in words; binding and its absence hold for the method and conditions named. In cells and extracts the contact can be indirect. Some binding calls cover weakened binding; strength is not graded here. For some assays here: Sequences can lack the tags named with a protein. Values belong to the binder of their own block, whether it stands above or below them.

Legend:
[1] = biological target: T1, Recombinant His-tagged ARH protein (autosomal recessive hypercholesterolemia protein) (human) (UniProt Q5SW96); test: pull-down of the GST fusion on His-tagged adaptor on Ni-NTA beads, anti-GST Western blot
T1 sequence: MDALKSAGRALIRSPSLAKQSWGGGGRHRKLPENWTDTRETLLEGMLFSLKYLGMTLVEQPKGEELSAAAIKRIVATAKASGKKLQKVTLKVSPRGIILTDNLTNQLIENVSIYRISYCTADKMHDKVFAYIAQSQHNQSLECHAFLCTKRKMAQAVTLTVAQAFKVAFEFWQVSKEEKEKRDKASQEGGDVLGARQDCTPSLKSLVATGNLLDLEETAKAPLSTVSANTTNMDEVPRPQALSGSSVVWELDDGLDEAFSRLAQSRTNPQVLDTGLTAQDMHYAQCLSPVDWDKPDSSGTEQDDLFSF

[2] = biological target: T2, ARH from whole rat kidney extracts (rat) (UniProt D3ZAR1); test: co-immunoprecipitation from whole rat kidney extracts, Western blot
T2 sequence (looked up): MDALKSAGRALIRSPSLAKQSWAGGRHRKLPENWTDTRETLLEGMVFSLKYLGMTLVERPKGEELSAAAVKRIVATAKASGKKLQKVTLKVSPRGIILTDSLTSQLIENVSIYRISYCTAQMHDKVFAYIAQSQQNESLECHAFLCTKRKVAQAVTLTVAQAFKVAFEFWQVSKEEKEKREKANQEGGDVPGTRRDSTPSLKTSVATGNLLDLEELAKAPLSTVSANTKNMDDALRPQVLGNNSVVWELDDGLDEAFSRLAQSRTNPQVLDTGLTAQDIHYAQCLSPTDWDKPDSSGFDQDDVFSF

binding [1]: binds
B1: GST fusion of the wild-type (WT) ROMK1 C-terminus (amino acids 349-391) (peptide, not shown: a dimerising Fc or GST)
chain: EVETPHCAMCLYNEKDARARMKRGYDNPNFVLSEVDETDDTQM

binding [2]: binds
B2: ROMK channel from whole rat kidney extracts (protein)
chain: MGASERSVFRVLIRALTERMFKHLRRWFITHIFGRSRQRARLVSKEGRCNIEFGNVDAQSRFIFFVDIWTTVLDLKWRYKMTVFITAFLGSWFLFGLLWYVVAYVHKDLPEFYPPDNRTPCVENINGMTSAFLFSLETQVTIGYGFRFVTEQCATAIFLLIFQSILGVIINSFMCGAILAKISRPKKRAKTITFSKNAVISKRGGKLCLLIRVANLRKSLLIGSHIYGKLLKTTITPEGETIILDQTNINFVVDAGNENLFFISPLTIYHIIDHNSPFFHMAAETLSQQDFELVVFLDGTVESTSATCQVRTSYVPEEVLWGYRFVPIVSKTKEGKYRVDFHNFGKTVEVETPHCAMCLYNEKDARARMKRGYDNPNFVLSEVDETDDTQM
